The exact form of at least one protein or probe is not confirmed. For some assays here: No signal at the amounts used counts as a negative.
Legend:
GST = assay: EMSA; details: ~2 ug protein in binding buffer (composition, salt and pH not given), on ice 6 h; 8% polyacrylamide gel, 100 V 30 min, ethidium bromide stain; recombinant protein
[1] = target: GST-TaRIM1 (Triticum aestivum (line CI12633)) (UniProt A0A182BBB2); assay: EMSA; details: ~2 ug protein in binding buffer (composition, salt and pH not given), on ice 6 h; 8% polyacrylamide gel, 100 V 30 min, ethidium bromide stain; recombinant protein; protein details: N-terminal GST (pGEX-4T-1)

AGTCGACCCACCTACCGCGGATCCTCGACCCACCTACCGTCGATC (double strand) [ACI (AC)]
binding result (GST): no binding

ATACCAGTCCCCAACGGCTAGCCAGTCCCCAACGGCTAGTTTAACC (double strand) [RT1]
binding result [1]: binds
